Measurements: the supplement of paper PMC6078165
The reference is the same well before dosing, and untreated signal decays as well.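 Fibroblast labels denote human fibroblasts, mainly primary ones from uterus (C12385, HUF), lung (H6013), bone (Hs27A), adrenal (HADF) and skin (WS1), plus mammary HMF and breast cancer-associated Hs343T. Cancer cells are basal-like or mesenchymal-like triple-negative breast cancer lines. A hit is a response shift exceeding 3x replicate standard deviation. The tissue of the other fibroblasts is not given here.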

System: MDAMB468
Test: relative JC-1 red fluorescence (viability) vs pre-drug, coculture with fibroblast (fraction); higher = more viable cancer cells
Description: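 JC-1 labelled TNBC cells cocultured 1:1 (1,500 cells each) with CellTrace Violet stained primary or stromal fibroblasts in 384-well plates in FluoroBrite medium, treated with one of 42 anticancer drugs at 0.1, 1, 10 or 100 uM. JC-1 red fluorescence (mitochondrial integrity in cancer cells only) was read by plate reader every 8 h for 72 h. Values are normalised to each well's pre-drug value. The stock of one drug was tenfold lower, so its dose labels may be too high.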

O=C(CCCCCCC(=O)Nc1ccccc1)NO [Vorinostat]
relative JC-1 red fluorescence
Conditions | 8 h | 16 h | 24 h | 32 h | 40 h | 48 h | 56 h | 64 h | 72 h
0.1 µM, coculture fibroblast: C12385 | 0.85196 | 0.756 | 0.708 | 0.641 | 0.585 | 0.565 | 0.528 | 0.503 | 0.486
0.1 µM, coculture fibroblast: H6013 | 0.83975 | 0.8215 | 0.7667 | 0.747 | 0.7 | 0.697 | 0.662 | 0.657 | 0.615
0.1 µM, coculture fibroblast: H6019 | 0.803 | 0.7572 | 0.713 | 0.6581 | 0.6209 | 0.602 | 0.5596 | 0.5239 | 0.504
0.1 µM, coculture fibroblast: H6076 | 0.9072 | 0.946 | 0.861 | 0.816 | 0.739 | 0.725 | 0.682 | 0.662 | 0.684
0.1 µM, coculture fibroblast: H6231 | 0.8254 | 0.9857 | 0.827 | 0.7959 | 0.7473 | 0.717 | 0.65 | 0.619 | 0.6022
0.1 µM, coculture fibroblast: HADF | 0.879 | 0.808 | 0.754 | 0.731 | 0.683 | 0.677 | 0.636 | 0.625 | 0.586
0.1 µM, coculture fibroblast: HCFa | 0.851 | 0.833 | 0.786 | 0.758 | 0.694 | 0.69 | 0.635 | 0.606 | 0.57
0.1 µM, coculture fibroblast: HCPF | 0.87 | 0.931 | 0.841 | 0.8 | 0.747 | 0.7076 | 0.656 | 0.64 | 0.617
0.1 µM, coculture fibroblast: HHSteC | 0.861 | 0.8326 | 0.77719 | 0.723 | 0.664 | 0.6575 | 0.595 | 0.569 | 0.523
0.1 µM, coculture fibroblast: HMF | 0.83 | 0.972 | 0.875 | 0.8262 | 0.7699 | 0.739 | 0.681 | 0.665 | 0.643
0.1 µM, coculture fibroblast: HPFa | 0.9277 | 0.8577 | 0.809 | 0.758 | 0.717 | 0.715 | 0.641 | 0.603 | 0.525
0.1 µM, coculture fibroblast: HUF | 0.881 | 0.78 | 0.721 | 0.656 | 0.609 | 0.581 | 0.533 | 0.507 | 0.4814
0.1 µM, coculture fibroblast: Hs5 | 0.906 | 0.849 | 0.925 | 0.891 | 0.83 | 0.801 | 0.758 | 0.722 | 0.732
0.1 µM, coculture fibroblast: Hs27A | 0.855 | 0.805 | 0.7453 | 0.741 | 0.674 | 0.6747 | 0.632 | 0.608 | 0.573
0.1 µM, coculture fibroblast: Hs343T | 0.8796 | 0.969 | 0.868 | 0.824 | 0.743 | 0.694 | 0.633 | 0.61 | 0.576
0.1 µM, coculture fibroblast: WS1 | 0.8092 | 0.722 | 0.663 | 0.599 | 0.548 | 0.517 | 0.487 | 0.467 | 0.457
1 µM, coculture fibroblast: C12385 | 0.874 | 0.796 | 0.688 | 0.588 | 0.529 | 0.504 | 0.467 | 0.436 | 0.427
1 µM, coculture fibroblast: H6013 | 0.8744 | 0.816 | 0.749 | 0.738 | 0.714 | 0.724 | 0.706 | 0.703 | 0.666
1 µM, coculture fibroblast: H6019 | 0.843 | 0.768 | 0.731 | 0.67 | 0.644 | 0.639 | 0.605 | 0.591 | 0.582
1 µM, coculture fibroblast: H6076 | 0.97 | 0.9731 | 0.8 | 0.777 | 0.688 | 0.667 | 0.63 | 0.61 | 0.664
1 µM, coculture fibroblast: H6231 | 0.807 | 0.883 | 0.763 | 0.718 | 0.6442 | 0.624 | 0.5827 | 0.561 | 0.553
1 µM, coculture fibroblast: HADF | 0.8703 | 0.812 | 0.735 | 0.729 | 0.68 | 0.683 | 0.661 | 0.652 | 0.611
1 µM, coculture fibroblast: HCFa | 0.847 | 0.7537 | 0.707 | 0.691 | 0.63 | 0.627 | 0.584 | 0.5592 | 0.5091
1 µM, coculture fibroblast: HCPF | 0.8537 | 0.9558 | 0.79 | 0.769 | 0.714 | 0.686 | 0.629 | 0.62 | 0.607
1 µM, coculture fibroblast: HHSteC | 0.894 | 0.816 | 0.778 | 0.752 | 0.728 | 0.729 | 0.672 | 0.656 | 0.609
1 µM, coculture fibroblast: HMF | 0.8353 | 0.95932 | 0.778 | 0.726 | 0.641 | 0.613 | 0.551 | 0.531 | 0.517
1 µM, coculture fibroblast: HPFa | 0.9154 | 0.873 | 0.802 | 0.759 | 0.732 | 0.746 | 0.682 | 0.665 | 0.6
1 µM, coculture fibroblast: HUF | 0.8994 | 0.843 | 0.724 | 0.658 | 0.603 | 0.588 | 0.551 | 0.535 | –
1 µM, coculture fibroblast: Hs5 | 0.798 | 0.945 | 0.878 | 0.833 | 0.757 | 0.72 | 0.688 | 0.661 | 0.686
1 µM, coculture fibroblast: Hs27A | 0.822 | 0.696 | 0.692 | 0.694 | 0.65702 | 0.6627 | 0.633 | 0.623 | 0.583
1 µM, coculture fibroblast: Hs343T | 0.878 | 0.9325 | 0.772 | 0.737 | 0.656 | 0.628 | 0.581 | 0.565 | 0.555
1 µM, coculture fibroblast: WS1 | 0.867 | 0.758 | 0.678 | 0.605 | 0.564 | 0.534 | 0.518 | 0.5 | 0.498
10 µM, coculture fibroblast: C12385 | 0.856 | 0.674 | 0.543 | 0.438 | 0.382 | 0.372 | 0.337 | 0.309 | 0.295
10 µM, coculture fibroblast: H6013 | 0.8619 | 0.81 | 0.74 | 0.672 | 0.649 | 0.648 | 0.626 | 0.618 | 0.558
10 µM, coculture fibroblast: H6019 | 0.792 | 0.6877 | 0.612 | 0.561 | 0.55 | 0.572 | 0.558 | 0.569 | 0.58
10 µM, coculture fibroblast: H6076 | 0.923 | 0.913 | 0.77 | 0.732 | 0.649 | 0.639 | 0.612 | 0.599 | 0.661
10 µM, coculture fibroblast: H6231 | 0.8501 | 0.926 | 0.701 | 0.667 | 0.58 | 0.563 | 0.518 | 0.489 | 0.502
10 µM, coculture fibroblast: HADF | 0.9118 | 0.783 | 0.66792 | 0.593 | 0.535 | 0.525 | 0.4744 | 0.45795 | 0.384
10 µM, coculture fibroblast: HCFa | 0.858 | 0.775 | 0.6916 | 0.6229 | 0.5634 | 0.55 | 0.505 | 0.49 | 0.447
10 µM, coculture fibroblast: HCPF | 0.877 | 0.868 | 0.7447 | 0.715 | 0.605 | 0.562 | 0.509 | 0.495 | 0.488
10 µM, coculture fibroblast: HHSteC | 0.8733 | 0.7735 | 0.673 | 0.58383 | 0.525 | 0.523 | 0.467 | 0.4523 | 0.406
10 µM, coculture fibroblast: HMF | 0.8474 | 0.883 | 0.732 | 0.678 | 0.588 | 0.544 | 0.473 | 0.456 | 0.457
10 µM, coculture fibroblast: HPFa | 0.91 | 0.793 | 0.693 | 0.587 | 0.541 | 0.537 | 0.486 | 0.475 | 0.424
10 µM, coculture fibroblast: HUF | 0.928 | 0.778 | 0.689 | 0.609 | 0.562 | 0.56 | 0.526 | 0.527 | 0.532
10 µM, coculture fibroblast: Hs5 | 0.98 | 0.871 | 0.747 | 0.6975 | 0.6095 | 0.5846 | 0.5607 | 0.539 | 0.579
10 µM, coculture fibroblast: Hs27A | 0.88 | 0.7939 | 0.7443 | 0.7153 | 0.6777 | 0.6853 | 0.6666 | 0.668 | 0.597
10 µM, coculture fibroblast: Hs343T | 0.9103 | 0.919 | 0.753 | 0.7 | 0.596 | 0.564 | 0.512 | 0.497 | 0.493
10 µM, coculture fibroblast: WS1 | 0.838 | 0.663 | 0.548 | 0.46 | 0.403 | 0.379 | 0.347 | 0.324 | 0.315
100 µM, coculture fibroblast: C12385 | 0.9298 | 0.788 | 0.606 | 0.48 | 0.409 | 0.38 | 0.336 | 0.311 | 0.301
100 µM, coculture fibroblast: H6013 | 0.987 | 0.858 | 0.721 | 0.603 | 0.548 | 0.546 | 0.514 | 0.5 | 0.438
100 µM, coculture fibroblast: H6019 | 0.897 | 0.686 | 0.537 | 0.433 | 0.397 | 0.406 | 0.392 | 0.408 | 0.412
100 µM, coculture fibroblast: H6076 | 0.871 | 0.954 | 0.811 | 0.771 | 0.681 | 0.663 | 0.652 | 0.631 | 0.708
100 µM, coculture fibroblast: H6231 | 0.877 | 0.918 | 0.743 | 0.704 | 0.6 | 0.575 | 0.536 | 0.517 | 0.524
100 µM, coculture fibroblast: HADF | 0.743 | 0.8858 | 0.746 | 0.648 | 0.578 | 0.556 | 0.51 | 0.482 | 0.406
100 µM, coculture fibroblast: HCFa | 0.945 | 0.8134 | 0.671 | 0.556 | 0.4722 | 0.4491 | 0.408 | 0.389 | 0.347
100 µM, coculture fibroblast: HCPF | 0.891 | 0.9548 | 0.862 | 0.835 | 0.751 | 0.723 | 0.673 | 0.661 | 0.644
100 µM, coculture fibroblast: HHSteC | 0.885 | 0.8537 | 0.731 | 0.639 | 0.592 | 0.5945 | 0.532 | 0.5133 | 0.4569
100 µM, coculture fibroblast: HMF | 0.87 | 0.961 | 0.8928 | 0.8617 | 0.771 | 0.7562 | 0.7104 | 0.6837 | 0.6694
100 µM, coculture fibroblast: HPFa | 0.904 | 0.963 | 0.803 | 0.67 | 0.617 | 0.599 | 0.536 | 0.522 | 0.454
100 µM, coculture fibroblast: HUF | 0.951 | 0.743 | 0.59 | 0.512 | 0.4547 | 0.435 | 0.393 | 0.389 | 0.384
100 µM, coculture fibroblast: Hs5 | 0.828 | 0.956 | 0.677 | 0.573 | 0.475 | 0.441 | 0.408 | 0.384 | 0.417
100 µM, coculture fibroblast: Hs27A | 0.9586 | 0.835 | 0.743 | 0.652 | 0.579 | 0.55 | 0.513 | 0.479 | 0.401
100 µM, coculture fibroblast: Hs343T | 0.933 | 0.898 | 0.754 | 0.686 | 0.563 | 0.53 | 0.484 | 0.462 | 0.45
100 µM, coculture fibroblast: WS1 | 0.9334 | 0.7388 | 0.581 | 0.433 | 0.351 | 0.32 | 0.286 | 0.269 | 0.266
